Data set [1] deals with T1, FAAP24 HhH domain (UniProt Q9BTP7).
T1 sequence (looked up): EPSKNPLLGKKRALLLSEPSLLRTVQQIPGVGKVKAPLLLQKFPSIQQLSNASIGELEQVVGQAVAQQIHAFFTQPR
Nature of the data set: EMSA. As to conditions: 400 mM NaCl, EMSA: 10 mM Tris pH 7.0, 10 mM NaCl (high salt: 50 mM NaHPO4, 400 mM NaCl), 5% glycerol, 1 mM DTT, 20 ug/ml BSA, on ice, gel at 4 C, recombinant protein, residues 139-215, protein details: N-terminal His. (In EMSA bound probe runs differently from free probe, usually more slowly.)

In data set [2] the target is T1, FAAP24 HhH domain. In words: NMR. To be noted: NMR: 50 mM NaHPO4 pH 6.5, 100 mM NaCl, 8% D2O, 298 K, recombinant protein, residues 139-215, protein details: N-terminal His.

The comparison behind a weaker result is the experiment's own reference, which may not be listed here. Where a protein sequence is shown, tags need not be part of it. Construct, isoform or probe ends are uncertain for at least one entry. For part of these data: At least one verdict was read from the data and is not stated in words by the source.

Turning to “TGCGAATTCATATGCAATATTCAGTGGCTGAGCTACTGG [ss39]”, in data set [1] (too weak to quantify, label: radiolabeled, single-stranded DNA), the binding result is “binds more weakly”. On to “GGGCGGCGGGTTTTTTTTTTGGCGGGGCGG (double strand) [ds30]”, for which the binding result in data set [1] (too weak to quantify, label: radiolabeled) is “binds more weakly”. With “GGCGGGGCGGGGGCGGCGGG (double strand) [ds20]”, the binding result in data set [2] (400 mM NaCl, smaller CSPs) is reported as “binds more weakly”. Regarding “GGGCGGCGGGTTTTTTTTTT / TTTTTTTTTTCCCGCCGCCC [F10 splayed arm]”, the binding result in data set [2] (400 mM NaCl, ~10-20% of CSPs at 100 mM NaCl) is recorded as “binds more weakly”.

For the sequence “GGGCGGCGGGTTTTTTTTTTGGCGGGGCGG / CCGCCCCGCCTTTTTTTTTTCCCGCCGCCC [B10 bubble]”, the binding result in data set [1] is on record as “binds more weakly”. Take “GGGCGGCGGGCGGATAGATTGAAATCTTAG / CCCGCCGCCC [3' extension]”: the binding result in data set [2] (100 mM NaCl, smaller CSPs, lower affinity) is “binds more weakly”.

Values taken from article PMC3711432, “The Fanconi anemia associated protein FAAP24 uses two substrate specific binding surfaces for DNA recognition”.
